Screening data, single-dose tests

The filed quantity is “Percent Effect” (%). The controls that fix the scale are not given in the record; negative values are as filed. Compounds were drawn at random from those tested, without regard to their results. Two or more numbers in one place are separate tests of the same structure; such repeats can differ widely. A dash means the value is not listed here; it may have been measured.

T. brucei: 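Whole-parasite assay of Trypanosoma brucei over 72 hours; the read-out is not stated. Tested at 30 µM. Higher reads as stronger inhibition (inferred: compounds with an IC50 in retests scored well above the rest). Values scatter widely below zero; nearly all retest evidence comes from the higher of the two concentrations used. Size under these conditions: about 64,000 compounds, about 940 of them at 50% or above in at least one test.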
Leishmania in macrophages: 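Cell assay of Leishmania donovani living inside macrophages; the read-out is not stated. Compounds at 30 µM. The record gives no direction; compounds that gave an IC50 in retests scored well above the rest, so higher reads as stronger inhibition. Size under these conditions: about 69,000 compounds, about 1,000 of them at 50% or above in at least one test.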

| # | compound | T. brucei | Leishmania in macrophages |
|---|---|---|---|
| 1 | `CCc1ncc(C(=O)N2CCCN(C3CCCCC3)CC2)cn1` | -56.6% | -19.8% |
| 2 | `COCCc1noc(CN2C(=O)OC[C@@H]2C(C)C)n1` | -23.76% | 27.7% |
| 3 | `Cc1ccc(C)c(Oc2ccc(CNC(=O)C3CCS(=O)(=O)C3)cn2)c1` (centres unmarked) | -46.63% | 28.01% |
| 4 | `CN(C)C(CNC(=O)NCc1cc[nH]n1)c1ccco1` (centres unmarked) | -11.47% | 9.455% |
| 5 | `CCN(CC1COc2ccccc2O1)C(=O)CCn1cncn1` (centres unmarked) | 15.66% | 15.56% |
| 6 | `CCCn1ccc(C(=O)N2CCOC(c3nc(-c4cccs4)no3)C2)n1` (centres unmarked) | 67.6% | 34.17% |
| 7 | `COC[C@H](C)Nc1cc(C)c2ccc(SC)cc2n1` | 47.16% | 36.72% |
| 8 | `CS(=O)(=O)NCCC1CCCCN1C(=O)NCc1ccccn1` (centres unmarked) | 0.7033% | 17.96% |
| 9 | `CCOCC(C)(C)NC(=O)Nc1cc(F)ccc1OC` | -1.754% | 18.18% |
| 10 | `COCCN(C)C(=O)NCCc1coc(-c2ccc(C)cc2)n1` | -3.771% | 6.326% |
| 11 | `CN(CC(=O)NCCCOc1ccc(F)cc1)c1ccc(C#N)cn1` | -13.45% | 19.9% |
| 12 | `Cn1c(NCCN2CCCCCC2)c(C#N)c(=O)n(C)c1=O` | -38.01% | -3.11% |
| 13 | `CNS(=O)(=O)c1ccc(CN2CCN3CCNC(=O)C3C2)cc1` (centres unmarked) | -10.51% | 0.1169% |
| 14 | `CCC(CC)C(=O)N1CCN(Cc2nc3ccccc3c(=O)[nH]2)CC1` | -1.464% | 0.3817% |
| 15 | `CC(C)c1ccc(-c2nnn(CCNS(C)(=O)=O)n2)cc1` | 35.95% | 17.19% |
| 16 | `OCC1CCCN1c1cc(NCCc2c[nH]c3ccccc23)ncn1` (centres unmarked) | -9.761% | 31.64% |
| 17 | `CC(C)n1cc(CN2CCCN(C(=O)c3ccc[nH]3)CC2)cn1` | 3.26% | 37.09% |
| 18 | `Cc1ccc(C(N)c2cccc(S(C)(=O)=O)c2)cc1` (centres unmarked) | 2.011% | 24.98% |
| 19 | `Cc1ccc(CS(=O)(=O)CC(=O)NCc2ccccc2F)cc1` | 0.9239% | 17.69% |
| 20 | `O=C(O)[C@@H]1CN(Cc2c[nH]c(CC3CCCC3)n2)C[C@H]1c1ccncc1` | -47.77% | 7.487% |
| 21 | `CCc1ccc(C(=O)N2CC(C(=O)NC(C)C)C3(CCOCC3)C2)cc1` (centres unmarked) | -36.4% | 20.17% |
| 22 | `O=C(O)C(F)(F)F.[H][C@]12CCN(Cc3cccc(C#N)c3)C[C@@]1([H])OCCN(c1ncccn1)C2` | -20.45% | -0.1535% |
| 23 | `CCOc1cc(/C=C/c2ncc(C(=O)O)s2)cc(Cl)c1OC` | 36.06% | 21.18% |
| 24 | `Cn1cc(CC(=O)N2CCCC(n3cncn3)C2)cn1` (centres unmarked) | 9.376% | 24.55% |
| 25 | `CCOCC1CN(Cc2ccc(OC)cc2)Cc2nn(C)cc21.O=C(O)C(F)(F)F` (centres unmarked) | -44.56% | 6.681% |
| 26 | `COc1ccc2cc(C(=O)N3CCCCC3Cn3cccn3)[nH]c2c1` (centres unmarked) | 13.49% | 14.57% |
| 27 | `CC(C)(C)c1nc(CN(CCC2CCCCC2)CC(N)=O)no1` | -20.65% | -10.66% |
| 28 | `CCn1cnnc1C1CCN(C(=O)c2cc3c(s2)CCCC3)CC1` | -3.446% | 1.317% |
| 29 | `COCCN1C(=O)CC(c2cccnc2)C12CCN(C)CC2` (centres unmarked) | -64.32% | 5.013% |
| 30 | `COCCNC(=O)C1CN(Cc2csc(C)n2)Cc2ccnn2C1.O=C(O)C(F)(F)F` (centres unmarked) | -14.43% | -15.43% |
| 31 | `O=C(c1ccccn1)N1CCC(Nc2cccnn2)CC1` | -4.331% | -18.4% |
| 32 | `O=C(O)C(F)(F)F.O=C1COC2(COCCN(Cc3ccsc3)C2)CN1c1ccoc1` (centres unmarked) | -3.218% | 4.003% |
| 33 | `CC(C)c1ccc(C(O)Cn2c(=O)c(C#N)cn(C3CC3)c2=O)cc1` (centres unmarked) | -11.81% | -20.44% |
| 34 | `[H][C@@]12CN(C(=O)c3cnccn3)C[C@]1([H])OCC(=O)N2CC1CCCCC1` | 12.95% | -3.367% |
| 35 | `CSc1ccc2cc(CN(C)CCO)c(=O)[nH]c2c1` | -27.7% | 10.15% |
| 36 | `COCCN1CCN(S(=O)(=O)c2ccccc2)Cc2cccnc21.O=C(O)C(F)(F)F` | -40.82% | 5.594% |
| 37 | `O=C(c1cccc2[nH]ccc12)N1CCC2(CCOC2)C1` (centres unmarked) | 0.8265% | 24.57% |
| 38 | `COc1ccc(C(C)N2CCC(OC)CC2)cc1Cl` (centres unmarked) | - | 4.271% |
| 39 | `Cc1nc(-c2ccc(S(=O)(=O)N3CCSCC3)cc2)co1` | -49.67% | 9.338% |
| 40 | `O=C1NCCCCC1NC(=O)N1CCc2ccccc21` (centres unmarked) | -13.37% | -13.08% |
| 41 | `Cc1cccc(C(C)(C)CNC(=O)CN(C)S(=O)(=O)c2cccnc2)c1` | -5.741% | 12.49% |
| 42 | `O=C(O)C(F)(F)F.c1csc(CNCC2COCc3c(-c4ccoc4)nnn3C2)n1` (centres unmarked) | -45.7% | 42.39% |
| 43 | `CCOC(=O)C1CCN(C(=O)c2cc(OCC)c3ccoc3c2)CC1` | 6.355% | 2.51% |
| 44 | `c1cc(-c2noc(CN3CCc4c(ncn4C4CC4)C3)n2)cs1` | -3.672% | -3.075% |
| 45 | `COc1ccccc1N1CCN(Cc2cnc3c(c2)c(C)nn3C)CC1` | -6.848% | -11.23% |
| 46 | `CCn1ncc(-c2cc(C(F)F)n3nc(CCC(=O)O)nc3n2)c1C` | -23.74% | 16.65% |
| 47 | `Cc1ccc(NC2CCN(C(=O)CCCc3ccccn3)CC2)cc1` | -5.822% | -51.94% |
| 48 | `CCn1c(CN(C)C)nnc1C1CCN(Cc2ccc(Cl)c(F)c2)CC1` | -16.43% | 38.16% |
| 49 | `CCn1nc2c(cc1=O)CN(CC(=O)Nc1nnc(C)s1)CC2` | - | 0.6389% |
| 50 | `c1ccc(CCN2CCCC2c2cccc(Nc3nccs3)n2)cc1` (centres unmarked) | 29.28% | 16.76% |
| 51 | `Cn1cc(C(=O)N2CCCC(CN3CCCC3=O)C2)cn1` (centres unmarked) | -0.324% | 19.54% and 12.88% |

The first 4 entries again:

- CCc1ncc(C(=O)N2CCCN(C3CCCCC3)CC2)cn1 | T. brucei: -56.6%; Leishmania in macrophages: -19.8%
- COCCc1noc(CN2C(=O)OC[C@@H]2C(C)C)n1 | T. brucei: -23.76%; Leishmania in macrophages: 27.7%
- Cc1ccc(C)c(Oc2ccc(CNC(=O)C3CCS(=O)(=O)C3)cn2)c1 (centres unmarked) | T. brucei: -46.63%; Leishmania in macrophages: 28.01%
- CN(C)C(CNC(=O)NCc1cc[nH]n1)c1ccco1 (centres unmarked) | T. brucei: -11.47%; Leishmania in macrophages: 9.455%

From ChEMBL document CHEMBL3988442, “University of Dundee, Small-Polar-MMV Screening Library” (2021).